{"sequences": {"note": "Protein sequences, listed by entry. Tags and fused reporters are not part of them. Lines headed by an entry give the natural chain unless they say otherwise; changes in a name come on top.", "UniProt P63159": "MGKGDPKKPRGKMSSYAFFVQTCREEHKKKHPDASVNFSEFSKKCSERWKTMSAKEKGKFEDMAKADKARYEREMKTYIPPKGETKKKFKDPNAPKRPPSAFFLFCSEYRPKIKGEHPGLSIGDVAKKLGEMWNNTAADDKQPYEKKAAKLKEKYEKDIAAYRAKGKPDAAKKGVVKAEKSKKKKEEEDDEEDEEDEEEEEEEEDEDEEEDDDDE", "UniProt P63331": "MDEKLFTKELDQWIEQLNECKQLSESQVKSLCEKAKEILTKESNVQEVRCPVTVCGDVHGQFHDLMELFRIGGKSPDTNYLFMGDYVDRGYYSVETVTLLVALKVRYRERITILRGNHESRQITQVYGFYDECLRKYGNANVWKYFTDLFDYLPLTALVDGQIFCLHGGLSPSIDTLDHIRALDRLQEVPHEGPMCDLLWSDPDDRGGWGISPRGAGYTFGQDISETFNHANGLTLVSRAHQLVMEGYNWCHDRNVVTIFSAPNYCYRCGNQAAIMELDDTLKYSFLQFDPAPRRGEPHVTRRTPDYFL"}, "source": "paper PMC11108907", "key": {"[1]": {"target": "high-mobility group box 1 (HMGB1) (rat (endogenous in SD rat brain tissue)) (UniProt P63159)", "experiment": "co-IP; Whole tissue lysates of rats (Control, SS, SS + LGA and SS + HGA groups) immunoprecipitated with anti-HMGB1, anti-PP2Ac or anti-PKCα antibody overnight at 4 °C, captured on protein A/G agarose beads, then immunoblotted"}, "[2]": {"target": "protein phosphatase 2 A catalytic subunit (PP2Ac) (rat (endogenous in SD rat brain tissue)) (UniProt P63331)", "experiment": "co-IP; Whole tissue lysates of rats (Control, SS, SS + LGA and SS + HGA groups) immunoprecipitated with anti-HMGB1, anti-PP2Ac or anti-PKCα antibody overnight at 4 °C, captured on protein A/G agarose beads, then immunoblotted"}}, "note": "Results are given in words; binding and its absence hold for the method and conditions named. In cells and extracts the contact can be indirect. Binding calls can cover weak binding; strength is not graded here."}
{"substance": "protein phosphatase 2 A catalytic subunit (PP2Ac) (from UniProt P63331) (enzyme)", "values": [{"measurement": "binding", "setting": "[1]", "result": "binds"}]}
{"substance": "high-mobility group box 1 (HMGB1) (from UniProt P63159 1-215)", "values": [{"measurement": "binding", "setting": "[2]", "result": "binds"}]}
